This is one part of the list.
Compound: C=CC(=O)N1CCC[C@@H](n2nc(-c3ccc(Oc4ccccc4)cc3)c3c(N)ncnc32)C1 [ibrutinib]
Assay: log2 fold change, soluble protein after heating vs DMSO (PISA); higher = thermal stabilisation; K562 cells, 10 uM, 30 min; active = over 0.2 and 3.5 SD of the protein, either way, in both replicates (recomputed)
Outline: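 Thermal stability values are relative to control samples and come from duplicates. They are expressed as log2 fold changes. For measurement, K562 cells (2×10^6 cells/mL) received 10 μM compound for 30 min, and aliquots were heated for 3 min over 48°C-58°C, pooled, and extracted at 4°C in PBS with 0.5% NP-40. Soluble protein, the supernatant after 21,000xg for 90 min, was quantified by TMTpro 16plex LC-MS/MS with equalised channel sums.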

Sequences of proteins named here, by UniProt entry; tags and fusion partners are left off. A change or cut given only in a name is not applied to a line headed by its entry.
UniProt Q8NBJ9: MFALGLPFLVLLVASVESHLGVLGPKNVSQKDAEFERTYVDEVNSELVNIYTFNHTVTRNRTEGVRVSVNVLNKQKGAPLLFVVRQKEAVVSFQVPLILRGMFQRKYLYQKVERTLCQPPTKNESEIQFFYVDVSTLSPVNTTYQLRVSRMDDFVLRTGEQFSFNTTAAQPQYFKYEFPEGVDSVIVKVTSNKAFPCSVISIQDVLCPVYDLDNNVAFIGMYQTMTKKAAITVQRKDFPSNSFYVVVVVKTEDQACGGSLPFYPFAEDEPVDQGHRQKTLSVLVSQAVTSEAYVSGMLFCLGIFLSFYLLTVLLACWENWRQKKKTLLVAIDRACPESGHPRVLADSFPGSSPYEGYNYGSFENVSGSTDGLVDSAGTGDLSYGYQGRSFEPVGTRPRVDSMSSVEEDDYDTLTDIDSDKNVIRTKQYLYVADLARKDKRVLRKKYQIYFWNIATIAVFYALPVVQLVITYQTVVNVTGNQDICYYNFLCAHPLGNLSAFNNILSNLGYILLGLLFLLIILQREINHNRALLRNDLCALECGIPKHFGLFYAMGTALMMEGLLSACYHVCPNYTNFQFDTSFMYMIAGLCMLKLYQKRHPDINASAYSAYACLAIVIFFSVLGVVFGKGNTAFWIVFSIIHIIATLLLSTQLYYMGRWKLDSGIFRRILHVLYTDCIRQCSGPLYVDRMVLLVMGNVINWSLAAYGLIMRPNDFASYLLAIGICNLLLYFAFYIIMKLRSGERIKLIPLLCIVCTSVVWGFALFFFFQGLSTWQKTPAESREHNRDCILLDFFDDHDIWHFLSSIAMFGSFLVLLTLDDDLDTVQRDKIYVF
UniProt Q86TU7: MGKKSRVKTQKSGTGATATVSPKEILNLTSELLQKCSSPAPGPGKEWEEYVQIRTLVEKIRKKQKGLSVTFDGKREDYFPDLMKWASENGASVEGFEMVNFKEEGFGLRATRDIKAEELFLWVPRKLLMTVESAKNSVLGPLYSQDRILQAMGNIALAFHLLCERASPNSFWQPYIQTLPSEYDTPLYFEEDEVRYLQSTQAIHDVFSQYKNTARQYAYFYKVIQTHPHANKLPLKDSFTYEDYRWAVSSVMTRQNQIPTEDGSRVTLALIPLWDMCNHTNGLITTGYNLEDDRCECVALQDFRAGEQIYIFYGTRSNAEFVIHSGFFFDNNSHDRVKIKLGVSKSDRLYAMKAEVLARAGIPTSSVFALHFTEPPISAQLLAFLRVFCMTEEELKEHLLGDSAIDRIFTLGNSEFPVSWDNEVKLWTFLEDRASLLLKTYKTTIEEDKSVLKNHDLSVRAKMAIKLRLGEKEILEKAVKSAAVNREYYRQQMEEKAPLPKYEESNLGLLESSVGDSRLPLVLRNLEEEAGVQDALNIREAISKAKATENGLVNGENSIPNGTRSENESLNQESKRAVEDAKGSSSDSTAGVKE
UniProt Q9UHD8: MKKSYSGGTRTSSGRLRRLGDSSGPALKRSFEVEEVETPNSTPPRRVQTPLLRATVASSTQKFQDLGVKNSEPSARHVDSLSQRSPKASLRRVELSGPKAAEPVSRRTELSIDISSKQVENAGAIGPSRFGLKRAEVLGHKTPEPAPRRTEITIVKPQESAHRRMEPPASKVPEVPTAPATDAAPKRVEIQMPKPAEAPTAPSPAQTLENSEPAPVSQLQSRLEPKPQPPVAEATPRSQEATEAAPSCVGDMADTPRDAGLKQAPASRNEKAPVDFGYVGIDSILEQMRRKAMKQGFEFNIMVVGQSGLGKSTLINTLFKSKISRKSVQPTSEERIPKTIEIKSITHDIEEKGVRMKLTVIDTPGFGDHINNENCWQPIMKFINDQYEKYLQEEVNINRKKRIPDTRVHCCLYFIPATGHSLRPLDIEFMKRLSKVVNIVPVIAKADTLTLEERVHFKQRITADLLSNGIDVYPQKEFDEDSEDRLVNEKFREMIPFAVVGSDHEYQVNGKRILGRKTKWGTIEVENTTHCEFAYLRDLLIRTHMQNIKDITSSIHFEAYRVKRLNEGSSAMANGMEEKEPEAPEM
UniProt O43236: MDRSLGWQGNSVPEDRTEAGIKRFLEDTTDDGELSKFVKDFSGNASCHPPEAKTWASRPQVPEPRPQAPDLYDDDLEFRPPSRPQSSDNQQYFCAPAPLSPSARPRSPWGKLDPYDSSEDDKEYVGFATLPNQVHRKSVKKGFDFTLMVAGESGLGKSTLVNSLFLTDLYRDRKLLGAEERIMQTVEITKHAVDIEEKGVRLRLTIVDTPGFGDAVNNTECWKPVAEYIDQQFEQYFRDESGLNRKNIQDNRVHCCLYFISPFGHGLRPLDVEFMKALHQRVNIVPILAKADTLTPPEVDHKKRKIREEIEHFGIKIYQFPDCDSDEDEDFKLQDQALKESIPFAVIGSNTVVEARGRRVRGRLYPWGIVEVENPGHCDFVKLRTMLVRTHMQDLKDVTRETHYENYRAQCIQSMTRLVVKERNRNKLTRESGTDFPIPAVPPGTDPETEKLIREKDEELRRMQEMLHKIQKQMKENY
UniProt Q9GZR1: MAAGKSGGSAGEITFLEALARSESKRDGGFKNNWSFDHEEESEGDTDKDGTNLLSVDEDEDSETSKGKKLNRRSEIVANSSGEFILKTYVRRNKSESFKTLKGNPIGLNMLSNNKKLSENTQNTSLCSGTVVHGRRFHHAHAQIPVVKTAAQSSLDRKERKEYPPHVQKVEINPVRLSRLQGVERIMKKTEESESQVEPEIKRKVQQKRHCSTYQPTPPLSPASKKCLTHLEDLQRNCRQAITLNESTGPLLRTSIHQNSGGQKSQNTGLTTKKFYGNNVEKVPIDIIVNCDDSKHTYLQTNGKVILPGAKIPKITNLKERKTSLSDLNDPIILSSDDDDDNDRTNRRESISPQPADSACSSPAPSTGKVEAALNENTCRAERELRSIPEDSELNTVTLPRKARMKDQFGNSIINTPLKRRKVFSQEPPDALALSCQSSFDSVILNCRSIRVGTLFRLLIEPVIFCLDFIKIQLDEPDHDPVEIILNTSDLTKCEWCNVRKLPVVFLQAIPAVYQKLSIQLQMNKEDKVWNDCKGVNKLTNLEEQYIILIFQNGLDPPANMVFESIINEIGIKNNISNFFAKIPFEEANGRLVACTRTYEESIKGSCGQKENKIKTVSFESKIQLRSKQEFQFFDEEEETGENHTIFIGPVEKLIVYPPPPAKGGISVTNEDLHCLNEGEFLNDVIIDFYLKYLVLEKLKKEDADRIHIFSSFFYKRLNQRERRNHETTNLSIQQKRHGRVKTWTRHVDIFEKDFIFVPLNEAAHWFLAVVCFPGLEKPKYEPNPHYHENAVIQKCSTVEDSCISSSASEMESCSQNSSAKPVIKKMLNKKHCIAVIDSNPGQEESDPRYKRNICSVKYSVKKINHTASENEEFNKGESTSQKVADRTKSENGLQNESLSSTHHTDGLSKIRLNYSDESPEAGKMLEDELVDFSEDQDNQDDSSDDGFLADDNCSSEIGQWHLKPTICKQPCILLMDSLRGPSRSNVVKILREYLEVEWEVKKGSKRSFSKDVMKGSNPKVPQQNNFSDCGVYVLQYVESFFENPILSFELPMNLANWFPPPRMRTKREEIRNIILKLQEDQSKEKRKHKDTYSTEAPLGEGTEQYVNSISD
UniProt P63208, whole entry, looked up: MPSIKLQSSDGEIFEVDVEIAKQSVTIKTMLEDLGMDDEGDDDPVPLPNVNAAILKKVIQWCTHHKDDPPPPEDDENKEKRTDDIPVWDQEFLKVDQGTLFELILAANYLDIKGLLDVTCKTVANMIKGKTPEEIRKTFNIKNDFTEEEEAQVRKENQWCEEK
UniProt Q9NR46: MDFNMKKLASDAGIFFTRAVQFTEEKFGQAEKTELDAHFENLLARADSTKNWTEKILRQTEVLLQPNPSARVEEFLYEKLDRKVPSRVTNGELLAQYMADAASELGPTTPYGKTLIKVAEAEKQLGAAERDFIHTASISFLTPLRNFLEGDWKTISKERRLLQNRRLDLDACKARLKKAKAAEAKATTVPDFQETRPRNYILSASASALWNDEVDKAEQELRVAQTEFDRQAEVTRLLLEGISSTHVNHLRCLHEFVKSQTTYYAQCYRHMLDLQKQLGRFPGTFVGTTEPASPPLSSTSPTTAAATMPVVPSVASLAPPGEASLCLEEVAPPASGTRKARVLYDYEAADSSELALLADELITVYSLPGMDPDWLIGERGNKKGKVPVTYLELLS
UniProt Q13530: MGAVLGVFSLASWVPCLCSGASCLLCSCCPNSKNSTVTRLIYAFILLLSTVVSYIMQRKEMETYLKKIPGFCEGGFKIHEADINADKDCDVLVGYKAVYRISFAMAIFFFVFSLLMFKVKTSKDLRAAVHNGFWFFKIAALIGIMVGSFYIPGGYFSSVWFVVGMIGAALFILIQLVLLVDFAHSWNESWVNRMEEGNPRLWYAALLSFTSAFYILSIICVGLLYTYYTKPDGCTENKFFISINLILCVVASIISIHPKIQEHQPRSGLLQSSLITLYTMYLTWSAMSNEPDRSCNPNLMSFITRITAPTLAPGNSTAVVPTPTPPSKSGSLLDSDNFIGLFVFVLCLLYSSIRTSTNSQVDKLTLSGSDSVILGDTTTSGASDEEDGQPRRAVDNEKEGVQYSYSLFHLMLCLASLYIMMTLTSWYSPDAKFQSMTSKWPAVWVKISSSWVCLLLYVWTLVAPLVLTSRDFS
UniProt Q68CR1: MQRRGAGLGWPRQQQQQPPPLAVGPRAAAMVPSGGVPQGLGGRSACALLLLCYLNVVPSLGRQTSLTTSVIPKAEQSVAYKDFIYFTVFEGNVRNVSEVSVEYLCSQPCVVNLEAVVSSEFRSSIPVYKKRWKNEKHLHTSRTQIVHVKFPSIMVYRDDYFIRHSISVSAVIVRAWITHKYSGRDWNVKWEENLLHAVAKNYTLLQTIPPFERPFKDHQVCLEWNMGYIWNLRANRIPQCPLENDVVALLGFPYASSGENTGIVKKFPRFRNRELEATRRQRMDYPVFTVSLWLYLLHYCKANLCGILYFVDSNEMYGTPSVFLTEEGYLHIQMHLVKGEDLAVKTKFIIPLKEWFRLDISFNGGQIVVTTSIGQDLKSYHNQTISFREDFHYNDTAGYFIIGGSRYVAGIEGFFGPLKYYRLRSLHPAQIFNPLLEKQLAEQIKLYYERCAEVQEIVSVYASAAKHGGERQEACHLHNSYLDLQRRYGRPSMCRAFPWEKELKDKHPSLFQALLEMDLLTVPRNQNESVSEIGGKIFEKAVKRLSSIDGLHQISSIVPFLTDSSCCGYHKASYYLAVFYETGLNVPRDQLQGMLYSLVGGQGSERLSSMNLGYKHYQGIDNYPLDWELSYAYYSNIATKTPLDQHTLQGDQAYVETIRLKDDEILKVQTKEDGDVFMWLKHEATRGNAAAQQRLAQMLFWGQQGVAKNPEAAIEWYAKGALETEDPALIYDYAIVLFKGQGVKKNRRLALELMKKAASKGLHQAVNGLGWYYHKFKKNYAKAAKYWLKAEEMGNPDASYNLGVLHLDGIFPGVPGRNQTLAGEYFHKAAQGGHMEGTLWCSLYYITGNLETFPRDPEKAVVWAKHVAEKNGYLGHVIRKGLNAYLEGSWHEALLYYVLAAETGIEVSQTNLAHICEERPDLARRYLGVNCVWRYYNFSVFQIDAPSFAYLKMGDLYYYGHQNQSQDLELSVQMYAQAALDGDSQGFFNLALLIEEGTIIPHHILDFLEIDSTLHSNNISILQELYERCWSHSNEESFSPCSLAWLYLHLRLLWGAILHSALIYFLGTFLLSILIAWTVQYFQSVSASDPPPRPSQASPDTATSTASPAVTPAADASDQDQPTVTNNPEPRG
UniProt Q99961: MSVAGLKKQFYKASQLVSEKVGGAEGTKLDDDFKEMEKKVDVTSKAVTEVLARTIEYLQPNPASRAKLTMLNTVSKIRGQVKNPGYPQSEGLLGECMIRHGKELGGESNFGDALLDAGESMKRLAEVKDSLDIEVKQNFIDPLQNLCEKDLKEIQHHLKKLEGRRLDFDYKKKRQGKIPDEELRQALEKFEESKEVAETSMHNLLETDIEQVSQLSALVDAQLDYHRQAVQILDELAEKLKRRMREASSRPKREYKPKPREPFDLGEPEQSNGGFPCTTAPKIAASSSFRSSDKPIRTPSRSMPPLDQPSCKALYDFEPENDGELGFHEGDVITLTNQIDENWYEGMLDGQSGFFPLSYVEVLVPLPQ
UniProt Q8IXJ6: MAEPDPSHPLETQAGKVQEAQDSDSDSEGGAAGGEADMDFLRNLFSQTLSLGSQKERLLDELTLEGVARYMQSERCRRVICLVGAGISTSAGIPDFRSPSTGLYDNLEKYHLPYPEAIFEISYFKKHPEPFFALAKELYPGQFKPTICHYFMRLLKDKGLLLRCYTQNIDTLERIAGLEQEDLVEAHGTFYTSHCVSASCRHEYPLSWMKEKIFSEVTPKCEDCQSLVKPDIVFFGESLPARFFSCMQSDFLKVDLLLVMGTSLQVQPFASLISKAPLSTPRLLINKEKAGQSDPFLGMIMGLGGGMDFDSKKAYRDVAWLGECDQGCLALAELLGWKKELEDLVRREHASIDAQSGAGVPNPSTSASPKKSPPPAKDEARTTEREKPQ

log2 fold change, inactive:
SFXN2 (UniProt Q96NB2) 0.031
SESN2 (UniProt P58004) 0.034
SGPL1 (UniProt O95470) -0.018
SGTA (UniProt O43765) -0.007
SIDT2 isoform 2 (UniProt Q8NBJ9) 0.123
SHOC2 (UniProt Q9UQ13) 0.022
SEPSECS (UniProt Q9HD40) -0.028
SERINC1 (UniProt Q9NRX5) 0.023
SERPINF1 (UniProt P36955) 0.212
SIN3A (UniProt Q96ST3) -0.154
SEH1L isoform 1 (UniProt Q96EE3) -0.021
SETD3 (UniProt Q86TU7) 0.011
SEPTIN9 (UniProt Q9UHD8) -0.008
SEPTIN4 isoform 4 (UniProt O43236) -0.064
SHCBP1 (UniProt Q8NEM2) -0.072
SENP6 (UniProt Q9GZR1) -0.018
SELENOH (UniProt Q8IZQ5) -0.039
SETMAR (UniProt Q53H47) -0.04
SKP1 (UniProt P63208) 0.054
SH3GLB2 (UniProt Q9NR46) 0.004
SEPHS2 (UniProt Q99611) 0.003
SERPINA7 (UniProt P05543) 0.229
SERPINB6, A0A087X1N8 0.044
SHC1 isoform 6 (UniProt P29353) 0.012
SERINC3 (UniProt Q13530) -0.01
SEL1L3 (UniProt Q68CR1) 0.013
SFXN5 (UniProt Q8TD22) -0.048
SH3GL1 (UniProt Q99961) -0.021
SEPTIN5 (UniProt Q99719) -0.013
SIRT2 (UniProt Q8IXJ6) -0.003
SIGMAR1 (UniProt Q99720) -0.004
SELENOF (UniProt O60613) -0.075

Reprinted from above for reference:
log2 fold change, inactive:
SENP6 (UniProt Q9GZR1) -0.018
SELENOH (UniProt Q8IZQ5) -0.039

Source: the supplement of paper PMC10849652
